The source gives many values for each of these; only a part stands here.
Tested on: TC/TEAD transcriptional profile in TC-expressing NIH3T3 cells
Test: Bulk RNA-Seq, differential gene expression and GSEA (TC ATA v. TC DMSO)
Type: cell-based, murine
Conditions: TC ATA v. TC DMSO
Experimental: NIH3T3 and HEK293 cells were obtained from the American Type Tissue Collection (ATCC, Manassas, VA) and cultured in DMEM containing 10% fetal bovine serum and penicillin/streptomycin. A TEAD dual luciferase reporter assay was performed as previously described. Cells were treated with vehicle control or ATA (10 μM) for 48 h before measuring the luciferase activity or processing the samples for RNA extraction. Each experiment was repeated at least 2-3 times. NIH3T3 cells were used. The extracted RNA (RNeasy Mini, Qiagen) from treated cells was either used for qPCR measurements or sent for bulk RNA-Seq. Sequencing runs were performed on an Illumina HiSeq 4000 sequencer (Genewiz). Subsequent bioinformatics analysis was performed in the Galaxy Project platform. Paired end reads were aligned to the murine genome ([…]2 [27]. Raw count files were generated with featureCounts using a corresponding GTF reference. Differential gene expression analysis was performed with DESeq2 [29]. Transcripts were considered to be differentially expressed if the false discovery rate < 0.05 and Log2FC > 2. When performing differential gene expression for GSEA analysis, the Limma package was used (<5 CPM filtering) with t-scores used for rank statistics. GSEA plots and statistics were generated with FGSEA with custom gene sets. Raw sequencing reads and processed files have been deposited in the GEO repository (data will be uploaded upon manuscript acceptance). The Universal Probe Library probes (Roche) and the associated primer sequences for the qPCR targets are listed below: […]

With `O=C(O)C1=CC(=C(c2ccc(O)c(C(=O)O)c2)c2ccc(O)c(C(=O)O)c2)C=CC1=O` [ATA, aurintricarboxylic acid] the “Log2 Fold Change” value (gene Myo1d) was 0.4365, the “Log2 Fold Change” value (gene Myom1) was 0.4774 and the “Log2 Fold Change” value (gene Myom2) was 0.6897. The “Log2 Fold Change” value (gene Myot) was 0.6711, the “Log2 Fold Change” value (gene Myoz1) was 0.4602 and the “Log2 Fold Change” value (gene Naalad2) was 0.3473. The “Log2 Fold Change” value (gene Narf) was 0.3076, the “Log2 Fold Change” value (gene Nav3) was -0.4529 and the “Log2 Fold Change” value (gene Ncl) was -0.2268. For the same compound, the “Log2 Fold Change” value (gene Ndrg2) was 0.5584, the “Log2 Fold Change” value (gene Neb) was 0.527 and the “Log2 Fold Change” value (gene Nefl) was -0.9955. The “Log2 Fold Change” value (gene Nfatc4) was 0.4876, the “Log2 Fold Change” value (gene Ngef) was -0.6115 and the “Log2 Fold Change” value (gene Nmrk2) was 1.13. For the same compound, the “Log2 Fold Change” value (gene Nop2) was -0.2237, the “Log2 Fold Change” value (gene Npr3) was -0.5907 and the “Log2 Fold Change” value (gene Nptx1) was -0.9075. For the same compound, the “Log2 Fold Change” value (gene Npy4r) was 1.064, the “Log2 Fold Change” value (gene Nr1d1) was -0.4085 and the “Log2 Fold Change” value (gene Nr3c1) was 0.1846. The “Log2 Fold Change” value (gene Nrap) was 0.7596, the “Log2 Fold Change” value (gene Nrp1) was 0.3215 and the “Log2 Fold Change” value (gene Nrp2) was 0.2717. For the same compound, the “Log2 Fold Change” value (gene Nsd2) was -0.2184, the “Log2 Fold Change” value (gene Nsg1) was 0.3567 and the “Log2 Fold Change” value (gene Nuak1) was 0.3648. The “Log2 Fold Change” value (gene Nudt13) was 0.4054, the “Log2 Fold Change” value (gene Obscn) was 0.5684 and the “Log2 Fold Change” value (gene Ogn) was 0.2982. For the same compound, the “Log2 Fold Change” value (gene Olfm1) was 0.9598, the “Log2 Fold Change” value (gene Opcml) was 0.5527 and the “Log2 Fold Change” value (gene Pa2g4) was -0.2052. The “Log2 Fold Change” value (gene Pabpc1) was -0.1899, the “Log2 Fold Change” value (gene Pabpc4) was -0.2396 and the “Log2 Fold Change” value (gene Pam) was 0.1995. For the same compound, the “Log2 Fold Change” value (gene Pank1) was 0.26, the “Log2 Fold Change” value (gene Pard6a) was 0.4107 and the “Log2 Fold Change” value (gene Pard6b) was -0.3681. For the same compound, the “Log2 Fold Change” value (gene Parvb) was -0.25, the “Log2 Fold Change” value (gene Pbx1) was 0.2753 and the “Log2 Fold Change” value (gene Pbxip1) was 0.3979. The “Log2 Fold Change” value (gene Pcdhb17) was 0.5008, the “Log2 Fold Change” value (gene Pde4b) was 0.6662 and the “Log2 Fold Change” value (gene Pdk2) was 0.4769. For the same compound, the “Log2 Fold Change” value (gene Pdk4) was 0.6028, the “Log2 Fold Change” value (gene Pdzrn3) was 0.3648 and the “Log2 Fold Change” value (gene Peg10) was -1.135. For the same compound, the “Log2 Fold Change” value (gene Peli2) was 0.4464, the “Log2 Fold Change” value (gene Phc2) was -0.2212 and the “Log2 Fold Change” value (gene Phyh) was 0.5623. For the same compound, the “Log2 Fold Change” value (gene Pik3r3) was 0.5572, the “Log2 Fold Change” value (gene Pim1) was -0.2398 and the “Log2 Fold Change” value (gene Pimreg) was -0.2047. For the same compound, the “Log2 Fold Change” value (gene Pink1) was 0.4263, the “Log2 Fold Change” value (gene Pitpnc1) was -0.3043 and the “Log2 Fold Change” value (gene Pkd1) was 0.2069. The “Log2 Fold Change” value (gene Pla2r1) was 0.5567, the “Log2 Fold Change” value (gene Plat) was 0.2454 and the “Log2 Fold Change” value (gene Plb1) was 0.8804. The “Log2 Fold Change” value (gene Plcxd2) was -0.4823, the “Log2 Fold Change” value (gene Pld1) was 0.3467 and the “Log2 Fold Change” value (gene Plk3) was -0.2486. The “Log2 Fold Change” value (gene Pltp) was 0.4949, the “Log2 Fold Change” value (gene Pmp22) was 0.5989 and the “Log2 Fold Change” value (gene Polr3g) was -0.3438. The “Log2 Fold Change” value (gene Pop1) was -0.2432, the “Log2 Fold Change” value (gene Postn) was 0.5184 and the “Log2 Fold Change” value (gene Ppif) was -0.3644. For the same compound, the “Log2 Fold Change” value (gene Prelp) was 1.192, the “Log2 Fold Change” value (gene Prex2) was 0.4012 and the “Log2 Fold Change” value (gene Prkg1) was 0.7933. For the same compound, the “Log2 Fold Change” value (gene Prl2c2) was 0.4598, the “Log2 Fold Change” value (gene Prl2c5) was 0.8033 and the “Log2 Fold Change” value (gene Prr5) was -0.3446. For the same compound, the “Log2 Fold Change” value (gene Prss35) was 1.498, the “Log2 Fold Change” value (gene Psap) was 0.2467 and the “Log2 Fold Change” value (gene Ptgds) was 1.363. For the same compound, the “Log2 Fold Change” value (gene Ptger4) was 0.3998, the “Log2 Fold Change” value (gene Ptn) was 1.096 and the “Log2 Fold Change” value (gene Ptp4a3) was 0.4113. The “Log2 Fold Change” value (gene Ptpre) was -0.626, the “Log2 Fold Change” value (gene Ptx3) was 1.487 and the “Log2 Fold Change” value (gene Pxn) was -0.3025. The “Log2 Fold Change” value (gene Pxylp1) was 0.5078, the “Log2 Fold Change” value (gene Pygo1) was 0.3537 and the “Log2 Fold Change” value (gene Ralgds) was 0.2485. The “Log2 Fold Change” value (gene Raph1) was -0.2233, the “Log2 Fold Change” value (gene Rars) was -0.3235 and the “Log2 Fold Change” value (gene Rasl11a) was 0.7443. For the same compound, the “Log2 Fold Change” value (gene Rassf1) was -0.3536, the “Log2 Fold Change” value (gene Rassf2) was 0.4223 and the “Log2 Fold Change” value (gene Rbm38) was -0.3121. The “Log2 Fold Change” value (gene Rcc1) was -0.2649, the “Log2 Fold Change” value (gene Rcl1) was -0.2404 and the “Log2 Fold Change” value (gene Reck) was 0.3051. For the same compound, the “Log2 Fold Change” value (gene Rgmb) was -0.3672, the “Log2 Fold Change” value (gene Rgs16) was -1.167 and the “Log2 Fold Change” value (gene Rnase4) was 0.2281. The “Log2 Fold Change” value (gene Rnf13) was 0.2512, the “Log2 Fold Change” value (gene Rnf24) was 0.2255 and the “Log2 Fold Change” value (gene Rnf157) was 0.293. The “Log2 Fold Change” value (gene Rnft1) was 0.2266, the “Log2 Fold Change” value (gene Rps2-ps5) was 0.5433 and the “Log2 Fold Change” value (gene Rps27a-ps2) was 0.3469. The “Log2 Fold Change” value (gene Rrp1b) was -0.2689, the “Log2 Fold Change” value (gene Rrp9) was -0.2842 and the “Log2 Fold Change” value (gene Rufy1) was -0.263. The “Log2 Fold Change” value (gene Ryr1) was 0.3443, the “Log2 Fold Change” value (gene S100a7a) was -0.8309 and the “Log2 Fold Change” value (gene Sacs) was -0.3663. The “Log2 Fold Change” value (gene Sardh) was 0.4627.

Source: article PMC9007350, “Aurintricarboxylic acid is a canonical disruptor of the TAZ-TEAD transcriptional complex” (PLoS ONE, 2022)
